Laboratory results as given in paper doi:10.1101/2025.05.02.651858.
Numbering of substitutions follows the chain as printed. Numbers in names are those of the source. Results are given in words; binding and its absence hold for the method and conditions named. One block for each binder: values may come before it.

Key:
[1] = target: ϕC31 integrase S12A/Y475H (Streptomyces phage ϕC31) (UniProt Q9T221); assay: SEC-MALS
[2] = target: ϕC31 integrase S12A/D477K (Streptomyces phage ϕC31) (UniProt Q9T221); assay: SEC-MALS

- binding [1]: no binding
B1: ϕC31 integrase S12A/Y475H (enzyme, UniProt Q9T221 1-605)
chain: MDTYAGAYDRQARERENSSAASPATQRSANEDKAADLQREVERDGGRFRFVGHFSEAPGTSAFGTAERPEFERILNECRAGRLNMIIVYDVSRFSRLKVMDAIPIVSELLALGVTIVSTQEGVFRQGNVMDLIHLIMRLDASHKESSLKSAKILDTKNLQRELGGYVGGKAPYGFELVSETKEITRNGRMVNVVINKLAHSTTPLTGPFEFEPDVIRWWWREIKTHKHLPFKPGSQAAIHPGSITGLCKRMDADAVPTRGETIGKKTASSAWDPATVMRILRDPRIAGFAAEVIYKKKPDGTPTTKIEGYRIQRDPITLRPVELDCGPIIEPAEWYELQAWLDGRGRGKGLSRGQAILSAMDKLYCECGAVMTSKRGEESIKDSYRCRRRKVVDPSAPGQHEGTCNVSMAALDKFVAERIFNKIRHAEGDEETLALLWEAARRFGKLTEAPEKSGERANLVAERADALNALEELHEDRAAGAYDGPVGRKHFRKQQAALTLRQQGAEERLAELEAAEAPKLPLDQWFPEDADADPTGPKSWWGRASVDDKRVFVGLFVDKIVVTKSTTGRGQGTPIEKRASITWAKPPTDDDEDDAQDGTEDVAA

- binding [2]: no binding
B2: ϕC31 integrase S12A/D477K (enzyme, UniProt Q9T221 1-605)
chain: B1 chain with H475Y, D477K
